This is a selection; strong and weak results do not stand in their true shares. At the low end of the ranking the order means little.
These sequences were tested against SPI1 (UniProt P17947) (assay: DAPPL (digital affinity profiling via proximity ligation, sequencing)). Conditions: 10 mM Tris-HCl pH 7.5, 50 mM NaCl, 1 mM DTT, 4% glycerol, room temperature, 30 min; GST-TFs on glutathione beads, 16-mer random dsDNA library, 0.1% …; high values mean tight binding; double strand, one strand shown; scale: fold enrichment (6-mer frequency, TF over GST control).

Row | Sequence | binding signal
1 | GGGGCG | 0.582
2 | GACCCG | 0.73
3 | GAGATT | 0.746
4 | ACGGGA | 0.639
5 | AGGTCG | 0.491
6 | AGGCAA | 0.683
7 | AGTGAG | 0.337
8 | CGGAGG | 0.263
9 | GATAGG | 0.73
10 | ACGTGT | 0.591
11 | GGATTG | 0.746
12 | GCACGT | 0.749
13 | CATGGA | 0.868
14 | ACAGTA | 0.876
15 | CGGTGT | 0.613
16 | CTGGAG | 0.643
17 | TCCAGG | 0.812
18 | TGAGGT | 0.646
19 | GACGAT | 0.828
20 | GGAGCG | 0.35

Part of the list above, reformatted.
Row,Sequence,binding signal
6,AGGCAA,0.683
12,GCACGT,0.749

Continued:

Row | Sequence | binding signal
21 | GAGACA | 0.39
22 | GCGTAG | 0.816
23 | GGAGTT | 0.419
24 | GGCCAT | 0.922
25 | GCAGTC | 0.481
26 | GAGCTG | 0.737
27 | CCGTGG | 0.423
28 | GCGGTA | 0.704
29 | ACCAGT | 0.459
30 | GTTGGA | 0.53
31 | GAGCGT | 0.318
32 | TGCGTG | 0.649
33 | CAACGG | 0.871
34 | AGTAGT | 0.933
35 | GACGGG | 0.434
36 | AGCCGG | 0.576
37 | CCAGTG | 0.435
38 | GACCAT | 0.88
39 | AGCCCG | 0.89
40 | GGCTGT | 0.787

From publication PMC7862700
